From US20180319873A1 (TAIPEI MEDICAL UNIVERSITY, published 2018)
No constants are given. Whether binding was seen depends on the method and setting. Some binding calls cover weakened binding; strength is not graded here.

Protein sequences, listed by entry. Tags and fused reporters are not part of them.
UniProt Q97QS2: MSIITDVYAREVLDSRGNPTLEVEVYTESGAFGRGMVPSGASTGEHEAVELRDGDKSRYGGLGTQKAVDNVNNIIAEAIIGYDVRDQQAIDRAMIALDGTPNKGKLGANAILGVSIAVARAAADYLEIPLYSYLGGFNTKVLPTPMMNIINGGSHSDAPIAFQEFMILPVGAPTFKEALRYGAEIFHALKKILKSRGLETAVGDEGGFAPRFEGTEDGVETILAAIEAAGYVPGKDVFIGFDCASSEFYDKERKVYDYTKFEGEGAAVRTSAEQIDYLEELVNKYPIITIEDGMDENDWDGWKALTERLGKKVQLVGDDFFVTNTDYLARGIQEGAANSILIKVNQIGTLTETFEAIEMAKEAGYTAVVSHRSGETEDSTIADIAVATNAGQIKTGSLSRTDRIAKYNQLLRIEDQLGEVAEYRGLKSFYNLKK

Biological target: SpENO1 (purified recombinant ENO1 of S. pneumoniae) (S. pneumoniae) (UniProt Q97QS2)
Assay: Western blot on purified ENO1 proteins

B1: CaS1 scFv (anti-CaENO1 scFv monoclonal antibody) (scFv)
scFv: ALTQPSSVSANLGGTVKITCSGGSGSYGWYQQKSPGSAPVTVIYSNNQRPSNIPSRFSGSPSGSTGTLTITGVQADDEAVYFCGSRDSSYVGVFGAGTTLTVLGQSSRSSTVTLDESGGGLQTPRGALSLVCKASGFTFIDYGMQWVRQAPGKGLEWVAGIGSSGSSTNYGAAVKGRATISRDDGQSTVRLQLNNLRAEDTGTYYCAKSAGGYCVNGAGCNGGSIDAWGHGTEVIVSS
notes: Chicken scFv from a phage library in pComb3X, expressed in E. coli, purified on Ni Sepharose; also called scFv CaS1; His-CaS1 scFv; not shown: His tag (and HA tag) from the pComb3X vector
  binding: binds
